Values quoted from earlier work in patent US10781467B2, “3-epimerase and polynucleotide encoding same” (priority 2016, dated 2020).

Settings: relative to sucrose; cited from earlier work

| Compound | sweetness, % of the sweetness of sucrose [%] | caloric energy, % of the energy of sucrose [%] |
| --- | --- | --- |
| O=C(CO)[C@@H](O)[C@@H](O)[C@H](O)CO [D-tagatose] | 92 |  |
| O=C(CO)[C@H](O)[C@H](O)[C@H](O)CO [D-allulose, D-ribo-2-hexulose] | 70 | 0.3 |
